## Results from one PubChem assay

Data taken from PubChem BioAssay AID1159506, deposited by NCATS (2015).

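Luminescence from an EWS-FLI1 target-promoter (NR0B1) reporter, set against a CMV-promoter reporter, two days after silencing single genes in TC32 Ewing sarcoma cells. Each siRNA was applied at 20 nM. A z-score of the log NR0B1-over-CMV signal, less the median of siRNAs with the same seed; more negative means a stronger specific loss of the NR0B1 reporter.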

The strongest results of the screen are mostly left out here. Sequences are the guide (antisense) strand, without overhang.

Sequence	gene	seed-corrected z-score
UCUUGAAGAAUGAUGGGUG	SAAL1	0.09927
UUCCGGCUCACAGUUAUAG	PWWP2A	-0.1774
UUGGGCUCCACCGUUUUCC	CEACAM21	-0.04153
AAGAUGGUCAUAUUGCUCG	CD86	-0.2225
UUUCCAAUACGCAACAGCC	DCUN1D2	-0.4099
UCUGUUUUGGGUCUUAUGG	SKI	0.1585
UCAGAGAAAAAGGCAUUCA	RHOG	-0.7677
UCUGUAGAAACGAUCAGCU	ANKDD1A	0.2579
UACGUGUUCAUGCCGUUCA	FOXA2	0.3061
UGCUCUUUAGGUUCGCAGC	IAH1	-0.7714
AUAGUCAUCGUCCCUUUCG	THBS1	-0.05878
UUCUUCUCCAAAGCAUUUC	INCA1	0.7229
UCAUAGUUGACAUCGAUGG	PARP1	0.02146
UUAAGUAUACCACCUGAGG	SLC9B1	-0.5721
UGCCGAACAAUUUCCUGUG	LIN9	-1.619
AGGGUGAUAAAUUUUGGUU	UBE2D4	0.1349
UGACAGAUACCAUUUUUCC	UBL4B	0.7742
UCUCGUUCUGGACUUGUCC	POGLUT1	-0.1573
UUGUAUCUCAGUGCAUCUC	DENND1B	-1.322
UUUUCUACAGAUCCAAACC	LAYN	-0.9827
AACUGUUCCAGUUUAGCAC	TMEM60	-0.5689
UUCAUUAUGUGGUCUAGGC	IL17RB	-1.102
UAGUGACCCACUCAAGUUC	NEURL4	0.4429
UUUAAUGUUGGGAACAAUC	MID2	-0.07093
UACAUAUCAAAUAUCUCUG	MTRF1L	-0.5541
UUUGUGAACCAUGAGCACA	IKZF1	-0.1869
UAGCGGUAGAAUUCCAGGC	SLC29A1	0.7503
UUUCGAAACGUGAAGGUGC	GMPR	0.1824
UUUAGUCAGCACAUCAUCG	ZNRF1	-0.868
UGUCUAAUGAGUGCUGAAC	ZNF17	-0.1231
UCGGCUUUAACCUUGUUCC	PGK1	0.3976
UUUUAUGCAGGGUCAUUCC	HOOK3	-0.09848
AAUUUAGGCAGCAAAGUCC	PIP5K1A	-1.65
UUUACGUACUACAUCAUCC	MPHOSPH10	0.478
UCCAUGAUCAGAAUAAGGC	BOLL	0.4992
UUUGGGCAAAGGUCGUUUG	MED17	0.4138
UCUCGUAGGAGGUAGAUGC	ZSWIM2	1.008
UUUCAGGUCUAUAUCCUCC	FAM213A	-0.3384
UUCCUUAUGCUUUUCAACU	VIMP	-0.7851
UUUGAGUAGAGUCCAGUUG	ZNF81	0.5257
UAUCACAUAAUGGAUCUUU	RNASE13	-0.6482
AGCAUGAUAAAGAACAGGC	SLC6A12	-0.2631
UAUCUAAUUUUUGUCCUUC	SUGT1	0.729
UUGGUGUCGAACAAGGUGG	ZNF134	-0.7103
ACCGUUUUCCCUUCAGGAG	ZNF286B	0.352
AACGGGAACACUUGAAGGC	ZNF709	-0.3495
UAUCCUUCCAGGGUUUUGC	KCTD11	0.3631
UUGGGUUCCAUUGAAUGCA	FSHR	-0.6481
UUCUAUUCAAAGACACUCC	LPIN1	-0.6398
UCAAUGACCAUCUUGUACC	ABCC8	-0.2251
UGUCUAUUCAGUGUGAAGC	ZNF17	-1.061
UUGGAACCAAUGUUAGAGG	XPNPEP1	-0.1036
AGAUGAUGAAAAAUUAAGC	LOC646626	-0.7365
UGUCCAACAAAAUGGAUCC	NKX6-1	-0.3146
AUAUAUACAAGUCAGGUUC	CLPSL1	-0.7589
UGAUGUUGAACCUUCGUCU	TFEB	0.7674
UACCUGGUAAGGCCUGUUG	FAM205BP	-0.06125
UUUCUUGUACAUGUCCUUC	ITPKA	0.1704
UCCUCAAUAAUGCAGUCAC	SHANK2	0.5052
UUGGUUCACAUGACCAUCC	C20orf202	-1.073
UCAAGUACUCGGAAUAAUC	YY2	-0.7133
UCUGCAUCUGCAUCGUCCC	C14orf80	-0.2593
UAUUCUCCCGUGUCUAGCC	PDGFRB	0.4926
CAUCUUAACGAGCUACCGC	LOC729887	0.4876
UGCAUUAUCAGAAGUCAUG	ATG4C	-0.3795
UGUGGUAUAUUACUGAUCC	MTFMT	-0.1212
UUAGGAUUUCCUAGUGUCC	MMP16	0.649
UAGGGAUUCACUUCAGGAU	ZNF273	-0.8166
AUAGGUGUGAAGUCAUAGC	HBP1	-0.1629
AAGCGGUUGAGGAUGGUGC	GREM2	0.8852
UUGAAAGUCAGGUCCAUCC	TXN2	-1.536
UAUCUCUCGACACUUGCAC	LGALS13	1.253
UAUCCGUUGAGACAGUAGC	NPNT	0.7291
UACAGACCAACAUGAGGUC	OR2V2	0.8815
UGAGUGAUUAGAUACGUGU	LOC644841	-0.6196
UAUGCAGGUAGAGCUGAGC	CYP4A22	-0.1048
ACUGAGACAACUGAAAGCU	ZNF124	1.083
UAUCUGACCCGUCCUCAGG	ZNF517	0.1095
UUGCAUACCACGUACUUCC	PRL	-0.04568